Results taken from PubChem BioAssay AID1042 (National Center for Advancing Translational Sciences (NCATS), 2008).
All entries are inconclusive by the source's own rule. Clear calls are listed elsewhere.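 The calls were made as follows: active = raised CDH13 expression over DMSO controls, judged by fold change in triplicate runs, no set cutoff; inconclusive = doubtful CDH13 rise, criteria not stated; inactive = no rise, falls in expression ignored.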

Assay: CDH13 Derepression/Induction Secondary Assay for qHTS Assay for Epigenetic Modulators
Details: H358 cells, CDH13 mRNA qPCR, 72 h; active compounds read high
Source text: NIH Molecular Libraries Screening Centers Network [MLSCN] NIH Chemical Genomics Center [NCGC] MLSCN Grant: 1 X01 MH079860-01 Assay Provider: Elisabeth D. Martinez, University of Texas SW Medical Center NCGC Assay Overview: This secondary assay characterizes selected actives identified in the qHTS of the Locus Derepression (LDR) assay (PubChem AID 597). The LDR assay detects the derepression of a GFP reporter that is stably integrated in a region of the genome of murine c127i mammary cells that is presumably silenced. Compounds that cause derepression of the locus to express GFP are identified by enumerating GFP positive cells using a laser-scanning microplate cytometer. Selected LDR actives were assayed for the induction of CDH13 gene expression, a gene silenced by methylation of its promoter. […]
NCGC Assay Protocol Summary Exponentially growing H358 non-small cell lung cancer cells were treated daily with fresh media containing the indicated concentrations of compounds for 72 hr. Cellular RNA was extracted, quantified, DNAse treated and reverse transcribed. The resulting cDNA was amplified in TaqMan real time quantitative PCR assays (Applied Biosystems) containing validated primers specific for CDH13 (Hs00169908.m1). […] Gene expression was measured by fold-induction over control DMSO-treated samples (36-37 average cycle time). […]

SMILES	fold change
CC(C)C(=O)NC(c1ccc(N(C)C)cc1)c1ccc2cccnc2c1O (configuration not stated)	inconclusive: 4
COc1ccc(C(NC(=O)C(C)C)c2ccc3cccnc3c2O)cc1 (configuration not stated)	inconclusive: 7
